Measurements reported in the supplement of paper PMC12067093, “Discovery and optimisation of a covalent ligand for TRIM25 and its application to targeted protein ubiquitination” (Chemical Science, 2025).
The other results are listed elsewhere or left out.

Compound: Cc1cc(ccc1-c1ccccc1)C(=O)N1CCCN(CC1)C(=O)CCl [compound 10]
Test: probe-labelled cysteine peptide fold change vs DMSO (competition) (log2 fold change); higher = less target engagement (more negative = stronger competition)
Settings: THP-1, incubation time: 4 h
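Note: competitive profiling in live THP-1 cells: cysteine peptides tagged with an iodoacetamide desthiobiotin (IA-DTB) probe, intensity after compound treatment relative to DMSO-treated cells.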

SIRT1_Q96EB6_326_EIYPGQFQPSLCHK (UniProt Q96EB6)
probe-labelled cysteine peptide fold change (10 µM): -0.0594 | probe-labelled cysteine peptide fold change (50 µM): -0.388

SLC25A19_Q9HC21_222_KNENLQNLLCGSGAGVISK (UniProt Q9HC21)
probe-labelled cysteine peptide fold change (10 µM): -0.299 | probe-labelled cysteine peptide fold change (50 µM): 0.0602

SERBP1_Q8NC51_11_PGHLQEGFGCVVTNRFDQLFDDESDPFEVLK (UniProt Q8NC51)
probe-labelled cysteine peptide fold change (10 µM): 0.0291 | probe-labelled cysteine peptide fold change (50 µM): -0.513

SETDB1_Q15047_329_TWEDIEDISCR (UniProt Q15047)
probe-labelled cysteine peptide fold change (10 µM): 0.197 | probe-labelled cysteine peptide fold change (50 µM): 0.323

SLC12A9_Q9BXP2_911_DLGPTLLVHGVTPVTCTDL (UniProt Q9BXP2)
probe-labelled cysteine peptide fold change (10 µM): 0.0705 | probe-labelled cysteine peptide fold change (50 µM): -0.0868

SETX_Q7Z333_2265_MHPDICLFPSNYVYNR (UniProt Q7Z333)
probe-labelled cysteine peptide fold change (10 µM): 0.237 | probe-labelled cysteine peptide fold change (50 µM): -0.0627

SLC27A3_Q5K4L6_256_RGPLLHCLR (UniProt Q5K4L6)
probe-labelled cysteine peptide fold change (10 µM): 0.0393 | probe-labelled cysteine peptide fold change (50 µM): -0.169

SERPINF2_P08697_152_LCQDLGPGAFR (UniProt P08697)
probe-labelled cysteine peptide fold change (10 µM): -0.277 | probe-labelled cysteine peptide fold change (50 µM): -0.584

SF3B3_Q15393_1054_FGNICVVR (UniProt Q15393)
probe-labelled cysteine peptide fold change (10 µM): 0.206 | probe-labelled cysteine peptide fold change (50 µM): 0.192

SF3B2_Q13435_661_IPGLNSPIPESCSFGYHAGGWGKPPVDETGK (UniProt Q13435)
probe-labelled cysteine peptide fold change (10 µM): 0.121 | probe-labelled cysteine peptide fold change (50 µM): 0.304

SIRT6_Q8N6T7_141_LAELHGNMFVEECAK (UniProt Q8N6T7)
probe-labelled cysteine peptide fold change (10 µM): -0.0707 | probe-labelled cysteine peptide fold change (50 µM): -0.0804

SIRT2_Q8IXJ6_221_CEDCQSLVKPDIVFFGESLPAR (UniProt Q8IXJ6)
probe-labelled cysteine peptide fold change (10 µM): 0.04 | probe-labelled cysteine peptide fold change (50 µM): 0.0413

SHC1_P29353_169_YMGCVEVLQSMR (UniProt P29353)
probe-labelled cysteine peptide fold change (10 µM): 0.356 | probe-labelled cysteine peptide fold change (50 µM): 0.2

SETX_Q7Z333_2384+2389_DCVIVTCVR (UniProt Q7Z333)
probe-labelled cysteine peptide fold change (10 µM): 0.0181 | probe-labelled cysteine peptide fold change (50 µM): -0.172

SF3A2_Q15428_56_NHLGSYECK (UniProt Q15428)
probe-labelled cysteine peptide fold change (10 µM): -0.00759 | probe-labelled cysteine peptide fold change (50 µM): -0.417

SLC27A2_O14975_149_SLLHCFQCCGAK (UniProt O14975)
probe-labelled cysteine peptide fold change (10 µM): -0.0436 | probe-labelled cysteine peptide fold change (50 µM): 0.0964

SHMT2_P34897_241_MREVCDEVK (UniProt P34897)
probe-labelled cysteine peptide fold change (10 µM): 0.0274 | probe-labelled cysteine peptide fold change (50 µM): -0.0366

SLC27A3_Q5K4L6_411_FSAGQFWEDCQQHR (UniProt Q5K4L6)
probe-labelled cysteine peptide fold change (10 µM): 0.26 | probe-labelled cysteine peptide fold change (50 µM): 0.589

SIAE_Q9HAT2_367_MPNTFMAVAMDLCDRDSPFGSIHPR (UniProt Q9HAT2)
probe-labelled cysteine peptide fold change (10 µM): -0.0923 | probe-labelled cysteine peptide fold change (50 µM): -0.465

SKIV2L_Q15477_50_AVELGCTGHWELLNLPGAPESSLPHGLPPCAPDLQQEAEQLFLSSPAWLPLHGVEHSAR (UniProt Q15477)
probe-labelled cysteine peptide fold change (10 µM): 0.464 | probe-labelled cysteine peptide fold change (50 µM): -0.0279

SEPT9_Q9UHD8_410+411_VHCCLYFIPATGHSLRPLDIEFMK (UniProt Q9UHD8)
probe-labelled cysteine peptide fold change (10 µM): -0.00614 | probe-labelled cysteine peptide fold change (50 µM): -0.119

SGO1_Q5FBB7_44_SFIAAPCQIITNTSTLLK (UniProt Q5FBB7)
probe-labelled cysteine peptide fold change (10 µM): 0.276 | probe-labelled cysteine peptide fold change (50 µM): -0.542

SIRPA_P78324_331_LTCQVEHDGQPAVSK (UniProt P78324)
probe-labelled cysteine peptide fold change (10 µM): -0.201 | probe-labelled cysteine peptide fold change (50 µM): -0.044

SGSM3_Q96HU1_517_DEHCWVGELNGLR (UniProt Q96HU1)
probe-labelled cysteine peptide fold change (10 µM): 0.186 | probe-labelled cysteine peptide fold change (50 µM): 0.255

SETD1B_Q9UPS6_1908+1912_FINHSCNPNCYAK (UniProt Q9UPS6)
probe-labelled cysteine peptide fold change (10 µM): 0.118 | probe-labelled cysteine peptide fold change (50 µM): -0.0843

SHPRH_Q149N8_1025_QLVCALNGLAGIHIIK (UniProt Q149N8)
probe-labelled cysteine peptide fold change (10 µM): -0.00218 | probe-labelled cysteine peptide fold change (50 µM): -0.125

SIRPA_P78324_170_ATPQHTVSFTCESHGFSPR (UniProt P78324)
probe-labelled cysteine peptide fold change (10 µM): 0.131 | probe-labelled cysteine peptide fold change (50 µM): 0.388

SLC12A2_P55011_630_IFQALCK (UniProt P55011)
probe-labelled cysteine peptide fold change (10 µM): 0.0669 | probe-labelled cysteine peptide fold change (50 µM): 0.000601

SIRT1_Q96EB6_574_GCMEEKPQEVQTSR (UniProt Q96EB6)
probe-labelled cysteine peptide fold change (10 µM): -0.17 | probe-labelled cysteine peptide fold change (50 µM): -0.335

SLC27A3_Q5K4L6_112_ALAAAAADPEGPEGGCSLAWR (UniProt Q5K4L6)
probe-labelled cysteine peptide fold change (10 µM): -0.185 | probe-labelled cysteine peptide fold change (50 µM): -0.196

SGO1_Q5FBB7_478_CTASVNYK (UniProt Q5FBB7)
probe-labelled cysteine peptide fold change (10 µM): 0.264 | probe-labelled cysteine peptide fold change (50 µM): 0.00171

SHKBP1_Q8TBC3_447_HLISVCADNNHVR (UniProt Q8TBC3)
probe-labelled cysteine peptide fold change (10 µM): -0.21 | probe-labelled cysteine peptide fold change (50 µM): 0.106

SLC1A5_Q15758_363_CVEENNGVAK (UniProt Q15758)
probe-labelled cysteine peptide fold change (10 µM): 0.0149 | probe-labelled cysteine peptide fold change (50 µM): -0.0681

SIGIRR_Q6IA17_174_LYDAYVSYSDCPEDR (UniProt Q6IA17)
probe-labelled cysteine peptide fold change (10 µM): -0.234 | probe-labelled cysteine peptide fold change (50 µM): -0.396

SEPT7_Q16181_160_VQCCLYFIAPSGHGLKPLDIEFMK (UniProt Q16181)
probe-labelled cysteine peptide fold change (10 µM): 0.0275 | probe-labelled cysteine peptide fold change (50 µM): -0.536

SFMBT1_Q9UHJ3_659_IGRPPGGHSNLACALK (UniProt Q9UHJ3)
probe-labelled cysteine peptide fold change (10 µM): -0.154 | probe-labelled cysteine peptide fold change (50 µM): -0.433

SHPRH_Q149N8_1110_CNTEVAEAQQALYPVQQTIHELQR (UniProt Q149N8)
probe-labelled cysteine peptide fold change (10 µM): 0.0924 | probe-labelled cysteine peptide fold change (50 µM): 0.293

SH2B2_O14492_333_VASCSCELLTDAVDLPRPPETTAVGAVVTAPHSR (UniProt O14492)
probe-labelled cysteine peptide fold change (10 µM): 0.129 | probe-labelled cysteine peptide fold change (50 µM): -0.133

SETX_Q7Z333_1656_NSCNVLHPQSPNNSNR (UniProt Q7Z333)
probe-labelled cysteine peptide fold change (10 µM): -0.205 | probe-labelled cysteine peptide fold change (50 µM): -0.146

SEPT6_Q14141_14_QVGEGCR (UniProt Q14141)
probe-labelled cysteine peptide fold change (10 µM): -0.187 | probe-labelled cysteine peptide fold change (50 µM): -0.123

SHCBP1_Q8NEM2_254_LHYDILEDRVPSGLIVDYHNLLSQCEESYR (UniProt Q8NEM2)
probe-labelled cysteine peptide fold change (10 µM): 0.0596 | probe-labelled cysteine peptide fold change (50 µM): 0.17
